Numbering of substitutions follows the chain as printed. These are yes or no findings as the source states them, for the method shown. Some entries that bind do so weakly or less than the wild type.

Protein sequences, listed by entry. Tags and fused reporters are not part of them. Lines headed by an entry give the natural chain unless they say otherwise; changes in a name come on top.
UniProt P04070: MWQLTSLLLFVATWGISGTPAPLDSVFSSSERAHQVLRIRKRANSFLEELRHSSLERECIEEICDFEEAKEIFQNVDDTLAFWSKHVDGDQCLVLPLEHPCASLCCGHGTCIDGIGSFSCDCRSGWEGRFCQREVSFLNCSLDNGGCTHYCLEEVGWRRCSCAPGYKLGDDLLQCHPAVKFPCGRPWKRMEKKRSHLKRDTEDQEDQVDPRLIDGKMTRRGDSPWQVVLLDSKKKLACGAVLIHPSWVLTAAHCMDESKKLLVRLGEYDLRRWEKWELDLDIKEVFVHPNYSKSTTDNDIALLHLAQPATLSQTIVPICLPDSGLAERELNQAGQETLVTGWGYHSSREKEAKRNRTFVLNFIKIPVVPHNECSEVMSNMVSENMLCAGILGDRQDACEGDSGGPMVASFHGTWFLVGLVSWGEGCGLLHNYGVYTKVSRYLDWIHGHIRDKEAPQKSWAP

From patent publication US20250163183A1 come the findings set out here.

Experiment [1] has as its target human activated protein C (APC) (human) (UniProt P04070). The experiment in a line: ELISA screen, APC-coated wells, OD450, n=2. Background: In an ELISA, binding on a coated surface is turned into a signal by an enzyme label.
Experiment [2] shares this target. Description: ELISA.

B1: SR16983-R3-P2-F07 (VHH)
VHH: QLQLVESGGGLVQAGGSLRLSCAASGTTFDMNSMGWYRQAPGFKRDLVATISIGGDTNYADSVKGRFTISRDNAKNTVYMQMNSLKPEDTAVYYCNAERIWPNRRSFWGQGTQVTVSS
As for B1, the binding entry in experiment [1] and in experiment [2] was “binds” each time.

B2: SR16983-R3-P4-E06 (VHH)
VHH: QLQLVESGGGLVQAGGSLRLSCAASGRTVGSYAVAWFRQAPGKERELLAASSRSTGNTVYADSVKGRFTIARDDAKNTLYLQMNSLKPEDTAVYYCAARASINYNYANWPYWGQGTQVTVSS
On to B2, for which the binding result in experiment [1] and in experiment [2] was “binds” each time.

B3: SR16983-R3-P4-E04 (VHH)
VHH: B2 VHH with L2V, A35G, L47F, A71S, A98T
With B3, the binding entry in experiment [1] and in experiment [2] was “binds” throughout.

B4: SR16983-R2-P4-G02 (VHH)
VHH: QLQLVESGGGLVQAGGSLRLSCAASGTTFSFVYMGWYRQAPGNQRDLVARISSDGSTNYADSVKGRFTISGDNAKNTVYLQMNSLRPEDTARYYCFYNGHLNKWGQGTQVTVSS
Turning to B4, the binding result in experiment [1] and in experiment [2] was “binds” throughout.

B5: SR16983-R2-P2-F07 (VHH)
VHH: B4 VHH with T27S, V32N, D54G, S56I, N76D, R86K, H100Y
Turning to B5, the binding result in experiment [1] and in experiment [2] was “binds” in each case.

B6: SR16983-R3-P5-A06 (VHH)
VHH: QLQLVESGGGLVQAGGSLRLSCVASGTTFTIEDIGWYRLAPGKQRELVAIISGGNTNYADSVKGRFTISRDNAKNTVYLQMNSLKPEDTAVYYCNGRTKATVKWGRGTQVTVSS
For the molecule B6, the binding result in experiment [1] and in experiment [2] was “binds” in each case.

B7: SR16983-R3-P5-C09 (VHH)
VHH: QLQLVESGGGLVQPGGSLRLSCAASGFTFSTKWMYWVRQGPGKGLERVAAIDASGGSTYYADSVKGRFTISRDNSKNTLYLQMNSLESADTAVYYCARSEGGQFRGRGTQVTVSS
For B7, the binding entry in experiment [1] and in experiment [2] was “binds” in each case.

B8: SR16983-R3P2H10 (VHH)
VHH: B7 VHH with S54G, K76E, L79V, Q103L, S115A
Take B8: the binding result in experiment [1] and in experiment [2] was “binds” in each case.

B9: SR16983-R3-P3-A08 (VHH)
VHH: EVQLVESGGGLVQAGGSLRLSCAASGRTFVGTYVMGWFRQAPGKAREFVAASSRSTGNTVYLDSVKGRFTVSRDDAKNTLYLQMNSLKPEDTAVYYCAARASINYNAANWPYWGQGTQVTVSS
Take B9: the binding entry in experiment [1] and in experiment [2] was “binds” in each case.

B10: SR16983-R4-P1-C05 (VHH)
VHH: QLQLVESGGGLVQAGGSLRLSCAASGRTFGSYVMGWFRQAPGKERAFVGAASRSTGTTVYLDSVKGRFTISRDDAKNTLYLQMNSLKPEDTAVYYCAARASINYNYANWPYWGQGTQVTVSS
Consider B10, for which the binding entry in experiment [1] and in experiment [2] was “binds” each time.

B11: SR16983-R2-P4-D07 (VHH)
VHH: B10 VHH with L2V, F29I, A46E, G49V, A51F, T57H, T58I, V59S, L61A
For B11, the binding entry in experiment [1] and in experiment [2] was “binds” each time.

B12: SR16983-R3-P3-E04 (VHH)
VHH: B10 VHH with L2V, A46E, G49A, T57N, L61P
For B12, the binding result in experiment [1] and in experiment [2] was “binds” throughout.

B13: SR16983-R2-P3-B05 (VHH)
VHH: B2 VHH with A14P, A33V, V34M, A35G, L47F, S51N, A71S, A98T
Consider B13, for which the binding result in experiment [1] and in experiment [2] was “binds” in each case.

B14: SR16983-R2-P4-E06 (VHH)
VHH: QLQLVESGGDLVQAGGSLRLSCAASGFTLDDYAIGWFRQAPGKEREGVSCIASSDGSTYYADSVKGRFTISTDNAKNTVYLQMNSLKPEDTAVYYCARGGLLLPKPELFDSWGQGTQVTVSS
Consider B14, for which the binding result in experiment [1] and in experiment [2] was “binds” in each case.

B15: SR16983-R3-P5-F04 (VHH)
VHH: B14 VHH with D10G, D110E, S111Y
For the molecule B15, the binding result in experiment [1] and in experiment [2] was “binds” throughout.

B16: SR16983-R2-P5-A12 (VHH)
VHH: QVQLVESGGGLVEAGGSLRLSCAASGRTFSSGALGWFRQAPGKEREFVATIRWSDERKQYSEFVKGRFTISRDSAKNTVYLQMNNLQPEDTAVYYCRSTVGNVLYWGQGTQVTVSS
As for B16, the binding entry in experiment [1] and in experiment [2] was “binds” in each case.

B17: SR16983-R2-P2-G09 (VHH)
VHH: QLQLVESGGGLVQAGGSLRLSCVASGTTFSIEETYWYRLAPGKQRELVAVISGGGNTNYADSVKGRFTISRDNAKNTVYLQMNSLKPEDTAVYYCSARTIATVKWGQGIQVTVSS
For the molecule B17, the binding result in experiment [1] and in experiment [2] was “binds” in each case.

B18: SR16983-R2-P2-C04 (VHH)
VHH: QLQLVESGGGLVQAGGSLRLSCAASRTTFRINGVDWYRQVPGKQRELVATASSDGPTNYAESVKGRFTISRDNAKNTVYLQMNSLKPEDTAVYYCRIVLPSRIIWGQGTQVTVSS
On to B18, for which the binding entry in experiment [1] and in experiment [2] was “binds” each time.

B19: SR16983-R2P1C08 (VHH)
VHH: QVQLVESGGGLVQPGGSLRLSCAASGRTFSNYAMGWFRQAPGKERRFVAGISRDDTSTSYADSVKGRFTILRDRSKNTVDLQMNSLKPEDTAIYYCAAARGIYGEISRYTGDYDSWGQGTQVTVSS
B19: the binding entry in experiment [1] and in experiment [2] was “binds” in each case.

B20: SR16983-R2-P2-G01 (VHH)
VHH: EVQLVESGGGLVQAGESLRLSCVVSGSRFRISGMGWYRQAPEKQRELVAAITRGGSTNYSDSVKGRFTISSDNAKNTVYLQMNSLKPDDTDVYYCAATVLDIPTMSTDDYWGQGTQVTVSS
As for B20, the binding entry in experiment [1] and in experiment [2] was “binds” throughout.

B21: SR16983-R3-P4-A08 (VHH)
VHH: QLQLVESGGGLVQAGDSLRLSCVFSGLTASTYAMAWFRQAPGKEREFVSVIDWKGDTTYANSVKGRFTISRDNGNKTVYLQMNSLQPEDTALYYCAARGSPGYVARLYAHWGRGTQVTVSS
Take B21: the binding result in experiment [1] and in experiment [2] was “binds” throughout.
